No constants are given. Whether binding was seen depends on the method and setting.
What was measured:
Assay in all cases: SEC; gel filtration on a HiLoad Superdex 200 16/60 column (S200); single peak, apparent molecular mass ~30 kDa; both purified
[1] = molecular target: HAstV-8 VP90^71–283 (human astrovirus serotype 8 (HAstV-8)) (UniProt Q9IFX1)
[2] = molecular target: HAstV-8 VP90^71–313 (human astrovirus serotype 8 (HAstV-8)) (UniProt Q9IFX1)
[3] = molecular target: HAstV-8 VP90^71–415 (amino acids 71 to 415 of the capsid protein precursor VP90 of human astrovirus serotype 8) (human astrovirus serotype 8 (HAstV-8), strain Yuc8) (UniProt Q9IFX1)

By UniProt entry, the sequences of proteins in these tests, tags left out. Where a name states a change or a piece, a line headed by the entry shows the natural chain unless it says otherwise.
UniProt Q9IFX1: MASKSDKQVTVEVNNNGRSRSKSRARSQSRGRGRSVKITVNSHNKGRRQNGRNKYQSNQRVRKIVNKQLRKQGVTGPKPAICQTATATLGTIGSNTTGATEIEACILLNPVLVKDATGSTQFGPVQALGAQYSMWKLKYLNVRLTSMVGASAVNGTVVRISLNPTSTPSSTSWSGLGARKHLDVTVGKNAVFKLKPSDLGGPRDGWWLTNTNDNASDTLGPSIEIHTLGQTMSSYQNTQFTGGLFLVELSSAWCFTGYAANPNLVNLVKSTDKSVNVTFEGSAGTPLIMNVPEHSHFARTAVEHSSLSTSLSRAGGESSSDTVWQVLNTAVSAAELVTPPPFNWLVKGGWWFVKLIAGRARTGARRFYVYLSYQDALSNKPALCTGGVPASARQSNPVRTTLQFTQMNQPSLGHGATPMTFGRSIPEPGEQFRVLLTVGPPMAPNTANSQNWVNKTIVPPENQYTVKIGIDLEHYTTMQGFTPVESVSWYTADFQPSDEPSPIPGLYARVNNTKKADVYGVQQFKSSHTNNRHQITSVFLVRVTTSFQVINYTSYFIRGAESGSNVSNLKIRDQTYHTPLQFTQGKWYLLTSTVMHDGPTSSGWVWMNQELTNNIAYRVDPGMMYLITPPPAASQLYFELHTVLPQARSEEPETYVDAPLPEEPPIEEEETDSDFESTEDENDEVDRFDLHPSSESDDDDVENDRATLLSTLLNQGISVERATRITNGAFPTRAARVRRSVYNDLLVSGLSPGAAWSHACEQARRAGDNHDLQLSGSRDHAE

In the case of “HAstV-8 VP90^71–283 (from UniProt Q9IFX1 71-283) (domain or fragment)”, the binding [1] is reported as “no binding”.

With “HAstV-8 VP90^71–313 (from UniProt Q9IFX1 71-313) (domain or fragment)” the binding [2] was “no binding”.

In the case of “HAstV-8 VP90^71–415 (amino acids 71 to 415 of the capsid protein precursor VP90 of human astrovirus serotype 8) (from UniProt Q9IFX1 71-415) (domain or fragment)”, the binding [3] is reported as “no binding”.
